Holding throughout (assay): co-IP; whole cell lysates of HeLa cells transfected with ECT2/wt, ECT2/GEF^mt or FLAG-tagged deletion mutants of USP7 or ECT2; the partner detected by immunoblot
Assay [1] deals with FLAG-tagged CD domain of USP7.
Assay [2] has as its target FLAG-tagged MATH domain deficient USP7 (USP7/ΔMATH).
Assay [3] has as its target FLAG-tagged ubiquitin like (UBL) domain of USP7.

These are yes or no findings as the source states them, for the method shown. Binding seen in cells or lysates may run through a third protein. For part of these data: A result given as binding can be weak or reduced; the word gives no strength.

B1: epithelial cell transforming sequence 2 (ECT2), endogenous (protein, UniProt Q9H8V3-4 1-883)
chain: MAENSVLTSTTGRTSLADSSIFDSKVTEISKENLLIGSTSYVEEEMPQIETRVILVQEAGKQEELIKALKDIKVGFVKMESVEEFEGLDSPEFENVFVVTDFQDSVFNDLYKADCRVIGPPVVLNCSQKGEPLPFSCRPLYCTSMMNLVLCFTGFRKKEELVRLVTLVHHMGGVIRKDFNSKVTHLVANCTQGEKFRVAVSLGTPIMKPEWIYKAWERRNEQDFYAAVDDFRNEFKVPPFQDCILSFLGFSDEEKTNMEEMTEMQGGKYLPLGDERCTHLVVEENIVKDLPFEPSKKLYVVKQEWFWGSIQMDARAGETMYLYEKANTPELKKSVSMLSLNTPNSNRKRRRLKETLAQLSRETDVSPFPPRKRPSAEHSLSIGSLLDISNTPESSINYGDTPKSCTKSSKSSTPVPSKQSARWQVAKELYQTESNYVNILATIIQLFQVPLEEEGQRGGPILAPEEIKTIFGSIPDIFDVHTKIKDDLEDLIVNWDESKSIGDIFLKYSKDLVKTYPPFVNFFEMSKETIIKCEKQKPRFHAFLKINQAKPECGRQSLVELLIRPVQRLPSVALLLNDLKKHTADENPDKSTLEKAIGSLKEVMTHINEDKRKTEAQKQIFDVVYEVDGCPANLLSSHRSLVQRVETISLGEHPCDRGEQVTLFLFNDCLEIARKRHKVIGTFRSPHGQTRPPASLKHIHLMPLSQIKKVLDIRETEDCHNAFALLVRPPTEQANVLLSFQMTSDELPKENWLKMLCRHVANTICKADAENLIYTADPESFEVNTKDMDSTLSRASRAIKKTSKKVTRAFSFSKTPKRALRRALMTSHGSVEGRSPSSNDKHVMSRLSSTSSLAGIPSPSLVSLPSFFERRSHTLSRSTTHLI
As to B1, the binding result is given as “no binding” in assay [1], “binds” in assay [2] and “no binding” in assay [3].
